Measured values: publication PMC6413005
These are yes or no findings as the source states them, for the method shown. Some binding calls cover weakened binding; strength is not graded here. Tags and fused reporters may be left off the sequences shown.

Sequences of proteins named here, by UniProt entry; tags and fusion partners are left off. Residues count along the entry.
UniProt P08195, residues 102-630: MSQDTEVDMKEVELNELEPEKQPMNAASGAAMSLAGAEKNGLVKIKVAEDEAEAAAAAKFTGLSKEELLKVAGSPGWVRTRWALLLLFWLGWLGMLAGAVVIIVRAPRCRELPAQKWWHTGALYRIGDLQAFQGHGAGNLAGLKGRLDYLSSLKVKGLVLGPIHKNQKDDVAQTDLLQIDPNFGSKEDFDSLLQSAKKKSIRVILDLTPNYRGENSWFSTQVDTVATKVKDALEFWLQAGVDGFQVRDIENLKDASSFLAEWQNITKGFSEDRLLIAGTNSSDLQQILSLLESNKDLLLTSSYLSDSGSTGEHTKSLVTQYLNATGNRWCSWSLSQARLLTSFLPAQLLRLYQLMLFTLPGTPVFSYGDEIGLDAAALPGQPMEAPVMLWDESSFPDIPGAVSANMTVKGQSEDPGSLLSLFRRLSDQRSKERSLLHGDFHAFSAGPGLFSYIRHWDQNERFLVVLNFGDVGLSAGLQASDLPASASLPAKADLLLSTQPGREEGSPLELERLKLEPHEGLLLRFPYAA

Key:
[1] = target: human 4F2hc (SLC3A2), His-tagged heavy subunit (human) (UniProt P08195); experiment: cryo-EM structure; single particle cryo-EM with Volta phase plate, 200 kV FEI Tecnai F20, Falcon III; purified complex at 300 ug/mL in 20 mM Bis-Tris propane pH 6.8, 150 mM NaCl, 2% glycerol, 0.01% LMNG/CHS; 47,933 particles, ~13 Å; both purified
[2] = target: human 4F2hc (SLC3A2), His-tagged heavy subunit (human) (UniProt P08195); experiment: native gel or EMSA; BN-PAGE (4-16% gradient gel) of the Ni-NTA purified, co-expressed complex in LMNG/CHS, 5 ug per lane; Coomassie stain and Western blots with anti-His (4F2hc) and anti-Strep (LAT2) antibodies; both purified

- binding [1]: binds
- binding [2]: binds
B1: human LAT2 (SLC7A8), Strep-tagged light subunit (protein, UniProt Q9UHI5 1-535)
chain: MEEGARHRNNTEKKHPGGGESDASPEAGSGGGGVALKKEIGLVSACGIIVGNIIGSGIFVSPKGVLENAGSVGLALIVWIVTGFITVVGALCYAELGVTIPKSGGDYSYVKDIFGGLAGFLRLWIAVLVIYPTNQAVIALTFSNYVLQPLFPTCFPPESGLRLLAAICLLLLTWVNCSSVRWATRVQDIFTAGKLLALALIIIMGIVQICKGEYFWLEPKNAFENFQEPDIGLVALAFLQGSFAYGGWNFLNYVTEELVDPYKNLPRAIFISIPLVTFVYVFANVAYVTAMSPQELLASNAVAVTFGEKLLGVMAWIMPISVALSTFGGVNGSLFTSSRLFFAGAREGHLPSVLAMIHVKRCTPIPALLFTCISTLLMLVTSDMYTLINYVGFINYLFYGVTVAGQIVLRWKKPDIPRPIKINLLFPIIYLLFWAFLLVFSLWSEPVVCGIGLAIMLTGVPVYFLGVYWQHKPKCFSDFIELLTLVSQKMCVVVYPEVERGSGTEEANEDMEEQQQPMYQPTPTKDKDVAGQPQP
